In all, about 320,000 compounds went through this assay and about 2,100 (0.66%) were called active. This list was built around the results that the source calls inconclusive (neither active nor inactive); the mix of calls is not that of the screen. The call rests on the fitted dose curve; in most records, active means well fitted inhibition curve with a large enough effect in the signal ratio, with a control signal flat (not every such curve was filed as active); inconclusive means small, poorly fitted or top-dose-only effect, or effect the other way, or a change in a side signal; inactive means flat fitted curve, though single readings scatter; the % refers to the signal ratio. Potencies beside an inconclusive call are fits to weak or partial responses and may not hold up.
Assay: qHTS Assay for Lipid Storage Modulators in Drosophila S3 Cells
Conditions: BODIPY lipid droplet fluorescence, 18-24 h, cells fed with added oleic acid; lipid storage change, negative = inhibition: at 46.1 µM (top of the series) unless noted
How it was run: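 Drosophila S3 cells got compounds at several concentrations plus oleic acid (400 uM solution). Laser-scanning cytometry with 488 nm excitation read lipid droplets at 500-530 nm and cells at 575-640 nm. Percent activity was relative to 20 uM Triacsin C.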
On the % scale 0 is the no-effect control and ±100 the full control effect; potency means the concentration at half of the fitted maximal effect.

Lipid storage change, negative = inhibition, inconclusive:
COc1cccc(Nc2nc(C)nc3c2oc2ccccc23)c1 11.1%
COCCCn1c(-c2ccccc2Cl)n[nH]c1=S 40%
Cc1nc2c(ccc3c([N+](=O)[O-])cccc32)c(C)c1C 5.92%
CC1(C2CC2)NC(=O)N(CC(=O)N2CCN(c3ccc(F)cc3)CC2)C1=O (configuration not stated) 209%
CC(C)CNC(=O)COC(=O)c1cc(Cl)cc(Cl)c1N 60.4%
COc1ccc(S(=O)(=O)N2CCCC(C(=O)Nc3ccc4c(c3)OCCO4)C2)cc1 (configuration not stated) -11.2%
COC(=O)C1=C(COc2ccc(F)cc2)NC(=O)NC1c1ccc(C)cc1C (configuration not stated) -19.8%
O=C(Nc1ccccc1)c1nsnc1C(=O)Nc1ccccc1 23.5%
Cc1ccc(NC(=S)N2CCc3[nH]c4ccccc4c3C2)cc1 -4.42%
COc1ccc(CCC(=O)OCC(=O)Nc2c(C)nn(-c3ccccc3)c2C)cc1 17.5%
CC(=O)c1cccc(NC(=O)N2CCOCC2)c1 -10.6%
O=C(Nc1ccc2c(c1)OCO2)c1cc(-c2ccncc2)nc2ccccc12 7.89%
COc1cccc(NC(=O)Nc2ccc3c(c2)OCO3)c1 45.1%
COc1ccc(S(=O)(=O)Nc2ccc(-n3cnnn3)cc2)cc1Br
Cc1nc(SCC(=O)Nc2ccc(CN3CCCC3)cc2)c2c(C)c(C)sc2n1 14.6%
COC(=O)[C@]1(C)N[C@H](c2ccc(-c3ccccc3)cc2)[C@@H]2C(=O)N(C)C(=O)[C@@H]21 -18%
NC(=O)Cn1cc(/C=N\NS(=O)(=O)c2ccc(F)cc2)c2ccccc21 -68.7%
COc1ccc(-c2nnc(SCC(=O)Nc3cc(F)ccc3C)o2)cc1 9.47%
Cc1occc1-c1nnc(SCC(=O)N2CCOCC2)n1Cc1ccco1 33.9%
CCc1nc(NCCO)c(C#N)c2c1CCCC2 33.5%
CCOC(=O)C1CCCN(C(=O)c2cc(=O)c3ccccc3o2)C1 (configuration not stated) -44.7%
COc1ccc(-c2cc(-c3c(O)c(OC)c4occc4c3OC)[nH]n2)cc1 301%
COc1cccc(Nc2cc(C)nc3nc(C)nn23)c1 -5.88%
CC(=O)c1ccc(OCCCC(=O)OCC(=O)Nc2ccc3[nH]c(=O)[nH]c3c2)cc1 10.5%
O=C(CSc1nnnn1C1CCCCC1)N1CCCC1 40.8%
COc1cc(CC(=O)OCC(=O)Nc2sccc2C(N)=O)cc(OC)c1OC -2.12%
CC(C)[C@H](NC(N)=O)C(=O)Nc1ccc(OCc2ccccc2)cc1 -8.3%
Cc1ccc(C(=O)NCC2CCCN2S(=O)(=O)c2cccs2)cc1C (configuration not stated)
CCOC(=O)c1[nH]c(=O)[nH]c1CSc1ccccn1 56.2%
CC(=O)C[C@@H](O)CC(=O)[C@H]1OC(=O)CCCCCCc2ccccc21 44.8%
CN(C)S(=O)(=O)c1ccc2oc(SCC(=O)c3c(N)n(C4CC4)c(=O)[nH]c3=O)nc2c1 -16.8%
CC(C)(C)c1ccc(C(=O)Nc2ccccc2NC(=O)c2ccco2)cc1 -37.9%
CCC1Oc2ccc(C)cc2N(Cc2cccc(C)c2)C1=O (configuration not stated) -38.8%
O=C(CSc1nnc2ccccn12)N1CCc2ccccc2C1 49.7%
CCOc1ccc(-n2c(SCc3ccc(C#N)cc3)nnc2-c2cccnc2)cc1 26.3%
Cn1cnnc1SCC(=O)Nc1ccc(Cl)c(S(=O)(=O)N2CCOCC2)c1 -29.9%
C=CCn1c(C)cc(C2=NNC(=NCC)SC2)c1C -9.27%
CCOC(=O)c1c(NC(=O)C2=C(C)NC(=S)NC2c2ccccc2C(F)(F)F)sc(C)c1C (configuration not stated) 9.19%
FC(F)(F)c1ccc(CSc2nccn2-c2ccccc2)cc1 6.62%
Cc1nc2ccc(Br)cn2c1C(=O)N/N=C\c1ccccc1Cl -11.4%
Cc1cccc(C(=O)NC(=S)NNC(=O)COc2c(C)cccc2C)c1 24.4%
CSc1ccccc1NC(=O)CN(C)CC(=O)NCC(=O)Nc1ccc(F)cc1 0.632%
O=C(CNC(=O)OCc1ccccc1)Oc1ccc2ccc(=O)oc2c1 -78.1%

Potency, inconclusive:
Cc1ccc(C(=O)Nc2ccc(Cl)cn2)cc1 0.651 µM [activator, single point]
COCCCn1c(SCC(=O)Nc2ccc(NC(C)=O)cc2)nc2sc3c(c2c1=O)CCC3 6.51 µM [falling, single point]
c1ccc(-n2nnnc2Sc2ncnc3sc4c(c23)CCCC4)cc1 23.1 µM [rising, partial curve]
O=C(Nc1ccc2c(c1)N(S(=O)(=O)c1cccs1)CCC2)c1c(F)cccc1F 2.59 µM [activator, partial curve]
COc1cccc2c1Oc1ncccc1N(C(=O)CCC(=O)NCc1ccc(F)cc1)C2 6.51 µM [activator, single point]
Cc1ccc2nc(Nc3nc(CSc4nnc(C)s4)cc(=O)[nH]3)nc(C)c2c1 1.46 µM [falling, single point]
COc1ccc(CNCc2cc3c(cc2[N+](=O)[O-])OCO3)cc1 0.651 µM [falling, partial curve, poor fit]
Cc1ccc(C(C)C)c(OCC(=O)OCc2c(C)noc2C)c1 0.731 µM [falling, full curve]
Cc1ccc(C)c(Cn2c(CO)nc3ccccc32)c1 29.1 µM [activator, single point]

Three records picked at random from the list so far, as already listed:
Potency, inconclusive:
O=C(Nc1ccc2c(c1)N(S(=O)(=O)c1cccs1)CCC2)c1c(F)cccc1F 2.59 µM [activator, partial curve]
COc1ccc(CNCc2cc3c(cc2[N+](=O)[O-])OCO3)cc1 0.651 µM [falling, partial curve, poor fit]
Cc1ccc2nc(Nc3nc(CSc4nnc(C)s4)cc(=O)[nH]3)nc(C)c2c1 1.46 µM [falling, single point]
